The other results are listed elsewhere or left out.
How the values were obtained:
Assay in all cases: glycan array binding signal (z-score within array); higher = stronger binding
Conditions in all cases: glycan notation: IUPAC condensed, linker removed
Glc(a1-6)Glc(a1-6)Glc = target: Glc(a1-6)Glc(a1-6)Glc
Method in brief: (§1)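 Columns mapping to the same glycan were averaged after glycan names were converted to IUPAC-condensed notation. The data come from 3228 arrays in the Consortium for Functional Glycomics database, limited to those with an available protein sequence. Binding is reported as a within-array Z-score averaged across arrays of one protein sequence and across linkers.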

[1] = target: Glc(a1-6)Glc(a1-6)Glc(a1-6)Glc
Method in brief: as §1

Glc(b1-4)Glc = target: Glc(b1-4)Glc
Method in brief: as §1

Glc(b1-6)Glc = target: Glc(b1-6)Glc
Method in brief: as §1

GlcA(b1-3)Gal = target: GlcA(b1-3)Gal
Method in brief: as §1

GlcA(b1-3)GlcNAc = target: GlcA(b1-3)GlcNAc
Method in brief: as §1

GlcA(b1-6)Gal = target: GlcA(b1-6)Gal
Method in brief: as §1

[2] = target: GlcA3S(b1-3)Gal(b1-4)GlcNAc(b1-2)Man
Method in brief: as §1

[3] = target: GlcA3S(b1-3)Gal(b1-4)GlcNAc(b1-3)Gal(b1-4)Glc
Method in brief: as §1

[4] = target: GlcNAc(a1-3)Gal(b1-4)GlcNAc
Method in brief: as §1

[5] = target: GlcNAc(a1-4)Gal(b1-3)GlcNAc
Method in brief: as §1

[6] = target: GlcNAc(a1-4)Gal(b1-4)GalNAc
Method in brief: as §1

[7] = target: GlcNAc(a1-4)Gal(b1-4)GlcNAc
Method in brief: as §1

[8] = target: GlcNAc(a1-4)Gal(b1-4)GlcNAc(b1-3)Gal(b1-4)Glc
Method in brief: as §1

[9] = target: GlcNAc(a1-4)Gal(b1-4)GlcNAc(b1-3)Gal(b1-4)GlcNAc
Method in brief: as §1

[10] = target: GlcNAc(a1-4)Gal(b1-4)GlcNAc(b1-3)Gal(b1-4)GlcNAc(b1-3)Gal(b1-4)GlcNAc
Method in brief: as §1

[11] = target: GlcNAc(a1-4)Gal(b1-4)GlcNAc(b1-3)Gal(b1-4)[Fuc(a1-3)]GlcNAc(b1-3)Gal(b1-4)[Fuc(a1-3)]GlcNAc
Method in brief: as §1

[12] = target: GlcNAc(a1-6)Gal(b1-4)GlcNAc
Method in brief: as §1

[13] = target: GlcNAc(b1-2)Gal(b1-3)GalNAc
Method in brief: as §1

[14] = target: GlcNAc(b1-2)Man(a1-3)[GlcNAc(b1-2)Man(a1-6)]Man(b1-4)GlcNAc(b1-4)GlcNAc
Method in brief: as §1

[15] = target: GlcNAc(b1-2)Man(a1-3)[GlcNAc(b1-2)Man(a1-6)]Man(b1-4)GlcNAc(b1-4)[Fuc(a1-6)]GlcNAc
Method in brief: as §1

[16] = target: GlcNAc(b1-2)Man(a1-3)[GlcNAc(b1-4)][GlcNAc(b1-2)Man(a1-6)]Man(b1-4)GlcNAc(b1-4)GlcNAc
Method in brief: as §1

[17] = target: GlcNAc(b1-2)Man(a1-3)[GlcNAc(b1-4)][GlcNAc(b1-2)Man(a1-6)]Man(b1-4)GlcNAc(b1-4)[Fuc(a1-6)]GlcNAc
Method in brief: as §1

[18] = target: GlcNAc(b1-2)[GlcNAc(b1-4)]Man(a1-3)[GlcNAc(b1-2)Man(a1-6)]Man(b1-4)GlcNAc(b1-4)GlcNAc
Method in brief: as §1

[19] = target: GlcNAc(b1-2)[GlcNAc(b1-4)]Man(a1-3)[GlcNAc(b1-4)][GlcNAc(b1-2)Man(a1-6)]Man(b1-4)GlcNAc(b1-4)GlcNAc
Method in brief: as §1

[20] = target: GlcNAc(b1-2)[GlcNAc(b1-4)]Man(a1-3)[GlcNAc(b1-4)][GlcNAc(b1-2)[GlcNAc(b1-6)]Man(a1-6)]Man(b1-4)GlcNAc(b1-4)GlcNAc
Method in brief: as §1

[21] = target: GlcNAc(b1-2)[GlcNAc(b1-4)]Man(a1-3)[GlcNAc(b1-4)][GlcNAc(b1-2)[GlcNAc(b1-6)]Man(a1-6)]Man(b1-4)GlcNAc(b1-4)[Fuc(a1-6)]GlcNAc
Method in brief: as §1

[22] = target: GlcNAc(b1-2)[GlcNAc(b1-6)]Man(a1-6)[GlcNAc(b1-2)Man(a1-3)]Man(b1-4)GlcNAc(b1-4)GlcNAc
Method in brief: as §1

[23] = target: GlcNAc(b1-2)[GlcNAc(b1-6)]Man(a1-6)[GlcNAc(b1-2)Man(a1-3)]Man(b1-4)GlcNAc(b1-4)[Fuc(a1-6)]GlcNAc
Method in brief: as §1

[24] = target: GlcNAc(b1-2)[GlcNAc(b1-6)]Man(a1-6)[GlcNAc(b1-4)][GlcNAc(b1-2)Man(a1-3)]Man(b1-4)GlcNAc(b1-4)GlcNAc
Method in brief: as §1

GlcNAc(b1-3)Fuc = target: GlcNAc(b1-3)Fuc
Method in brief: as §1

GlcNAc(b1-3)Gal = target: GlcNAc(b1-3)Gal
Method in brief: as §1

[25] = target: GlcNAc(b1-3)Gal(b1-3)GalNAc
Method in brief: as §1

GlcNAc(b1-3)Gal(b1-4)Glc = target: GlcNAc(b1-3)Gal(b1-4)Glc
Method in brief: as §1

[26] = target: GlcNAc(b1-3)Gal(b1-4)GlcNAc
Method in brief: as §1

[27] = target: GlcNAc(b1-3)Gal(b1-4)GlcNAc(b1-2)Man(a1-3)[GlcNAc(b1-3)Gal(b1-4)GlcNAc(b1-2)Man(a1-6)]Man(b1-4)GlcNAc(b1-4)GlcNAc
Method in brief: as §1

[28] = target: GlcNAc(b1-3)Gal(b1-4)GlcNAc(b1-2)Man(a1-3)[GlcNAc(b1-3)Gal(b1-4)GlcNAc(b1-2)Man(a1-6)]Man(b1-4)GlcNAc(b1-4)[Fuc(a1-6)]GlcNAc
Method in brief: as §1

[29] = target: GlcNAc(b1-3)Gal(b1-4)GlcNAc(b1-2)[GlcNAc(b1-3)Gal(b1-4)GlcNAc(b1-6)]Man(a1-6)[GlcNAc(b1-3)Gal(b1-4)GlcNAc(b1-2)Man(a1-3)]Man(b1-4)GlcNAc(b1-4)GlcNAc
Method in brief: as §1

[30] = target: GlcNAc(b1-3)Gal(b1-4)GlcNAc(b1-3)Gal(b1-4)GlcNAc
Method in brief: as §1

[31] = target: GlcNAc(b1-3)Gal(b1-4)GlcNAc(b1-3)Gal(b1-4)GlcNAc(b1-2)Man(a1-3)[GlcNAc(b1-3)Gal(b1-4)GlcNAc(b1-3)Gal(b1-4)GlcNAc(b1-2)Man(a1-6)]Man(b1-4)GlcNAc(b1-4)GlcNAc
Method in brief: as §1

[32] = target: GlcNAc(b1-3)Gal(b1-4)GlcNAc(b1-3)Gal(b1-4)GlcNAc(b1-2)Man(a1-3)[GlcNAc(b1-3)Gal(b1-4)GlcNAc(b1-3)Gal(b1-4)GlcNAc(b1-2)Man(a1-6)]Man(b1-4)GlcNAc(b1-4)[Fuc(a1-6)]GlcNAc
Method in brief: as §1

[33] = target: GlcNAc(b1-3)Gal(b1-4)GlcNAc(b1-3)Gal(b1-4)GlcNAc(b1-2)[GlcNAc(b1-3)Gal(b1-4)GlcNAc(b1-3)Gal(b1-4)GlcNAc(b1-6)]Man(a1-6)[GlcNAc(b1-3)Gal(b1-4)GlcNAc(b1-3)Gal(b1-4)GlcNAc(b1-2)Man(a1-3)]Man(b1-4)GlcNAc(b1-4)[Fuc(a1-6)]GlcNAc
Method in brief: as §1

[34] = target: GlcNAc(b1-3)Gal(b1-4)GlcNAc(b1-3)Gal(b1-4)GlcNAc(b1-3)Gal(b1-4)GlcNAc(b1-2)Man(a1-3)[GlcNAc(b1-3)Gal(b1-4)GlcNAc(b1-3)Gal(b1-4)GlcNAc(b1-3)Gal(b1-4)GlcNAc(b1-2)Man(a1-6)]Man(b1-4)GlcNAc(b1-4)GlcNAc
Method in brief: as §1

[35] = target: GlcNAc(b1-3)Gal(b1-4)GlcNAc(b1-3)Gal(b1-4)GlcNAc(b1-3)Gal(b1-4)GlcNAc(b1-2)Man(a1-3)[GlcNAc(b1-3)Gal(b1-4)GlcNAc(b1-3)Gal(b1-4)GlcNAc(b1-3)Gal(b1-4)GlcNAc(b1-2)Man(a1-6)]Man(b1-4)GlcNAc(b1-4)[Fuc(a1-6)]GlcNAc
Method in brief: as §1

[36] = target: GlcNAc(b1-3)Gal(b1-4)GlcNAc(b1-3)Gal(b1-4)GlcNAc(b1-3)Gal(b1-4)GlcNAc(b1-2)[GlcNAc(b1-3)Gal(b1-4)GlcNAc(b1-3)Gal(b1-4)GlcNAc(b1-3)Gal(b1-4)GlcNAc(b1-6)]Man(a1-6)[GlcNAc(b1-3)Gal(b1-4)GlcNAc(b1-3)Gal(b1-4)GlcNAc(b1-3)Gal(b1-4)GlcNAc(b1-2)Man(a1-3)]Man(b1-4)GlcNAc(b1-4)[Fuc(a1-6)]GlcNAc
Method in brief: as §1

B1: BabA (Helicobacter pylori), O52269_HELPY (protein)
chain: AEDDGFYMSAGYQIGEAAQMVKNTKGIQELSDNYENLSNLLTRYSTLNTLIKLSADPSAVNAARENLGASAKNLIGDTKNSPAYQAVLLAINAAVGFWNVVGYVTQCGGNANGQKSTSSTTIFNNEPGYRSTSITCSLNGHMPGYYGPMSIENFKKLNEAYQILQTALKNGLPALKENNGTVNVTYSYTCSGEGNDNCSLQTTGVTNQNNGTKTETQTIDGKSVTTTISSKVVDSQ
How did the “glycan array binding signal (z-score)” value (Glc(a1-6)Glc(a1-6)Glc) turn out when B1 was run?
Its value is 0.573.

What about the “glycan array binding signal (z-score)” value [1] of the same binder?
The value was 0.59.

What about the “glycan array binding signal (z-score)” value (Glc(b1-4)Glc) of the same binder?
Its value is -0.119.

What about the “glycan array binding signal (z-score)” value (Glc(b1-6)Glc) of the same binder?
The value was 0.7.

What about the “glycan array binding signal (z-score)” value (GlcA(b1-3)Gal) of the same binder?
The value was -0.056.

And the “glycan array binding signal (z-score)” value (GlcA(b1-3)GlcNAc)?
Its value is 0.551.

And the “glycan array binding signal (z-score)” value (GlcA(b1-6)Gal)?
The value was -0.267.

And the “glycan array binding signal (z-score)” value [2]?
Its value is -0.555.

And the “glycan array binding signal (z-score)” value [3]?
Its value is -0.718.

What about the “glycan array binding signal (z-score)” value [4] of the same binder?
The value was -0.521.

And the “glycan array binding signal (z-score)” value [5]?
Its value is -0.604.

And the “glycan array binding signal (z-score)” value [6]?
Its value is 1.61.

And the “glycan array binding signal (z-score)” value [7]?
The value was 1.1.

And the “glycan array binding signal (z-score)” value [8]?
Its value is 0.087.

What about the “glycan array binding signal (z-score)” value [9] of the same binder?
The value was 1.12.

And the “glycan array binding signal (z-score)” value [10]?
Its value is -1.14.

And the “glycan array binding signal (z-score)” value [11]?
The value was 2.51.

What about the “glycan array binding signal (z-score)” value [12] of the same binder?
Its value is -0.128.

What about the “glycan array binding signal (z-score)” value [13] of the same binder?
Its value is -0.387.

And the “glycan array binding signal (z-score)” value [14]?
The value was 0.294.

What about the “glycan array binding signal (z-score)” value [15] of the same binder?
Its value is -0.602.

What about the “glycan array binding signal (z-score)” value [16] of the same binder?
The value was 0.726.

What about the “glycan array binding signal (z-score)” value [17] of the same binder?
The value was -0.664.

And the “glycan array binding signal (z-score)” value [18]?
Its value is -0.455.

And the “glycan array binding signal (z-score)” value [19]?
Its value is -0.437.

And the “glycan array binding signal (z-score)” value [20]?
The value was -0.555.

What about the “glycan array binding signal (z-score)” value [21] of the same binder?
The value was -0.373.

And the “glycan array binding signal (z-score)” value [22]?
Its value is -0.364.

What about the “glycan array binding signal (z-score)” value [23] of the same binder?
Its value is 0.399.

And the “glycan array binding signal (z-score)” value [24]?
Its value is -0.537.

What about the “glycan array binding signal (z-score)” value (GlcNAc(b1-3)Fuc) of the same binder?
The value was -0.092.

What about the “glycan array binding signal (z-score)” value (GlcNAc(b1-3)Gal) of the same binder?
The value was -1.16.

What about the “glycan array binding signal (z-score)” value [25] of the same binder?
Its value is -0.168.

What about the “glycan array binding signal (z-score)” value (GlcNAc(b1-3)Gal(b1-4)Glc) of the same binder?
The value was 0.005.

And the “glycan array binding signal (z-score)” value [26]?
Its value is -1.05.

What about the “glycan array binding signal (z-score)” value [27] of the same binder?
The value was 0.363.

What about the “glycan array binding signal (z-score)” value [28] of the same binder?
The value was 1.03.

And the “glycan array binding signal (z-score)” value [29]?
Its value is 1.25.

What about the “glycan array binding signal (z-score)” value [30] of the same binder?
The value was -0.955.

What about the “glycan array binding signal (z-score)” value [31] of the same binder?
Its value is 4.69.

What about the “glycan array binding signal (z-score)” value [32] of the same binder?
Its value is 2.82.

What about the “glycan array binding signal (z-score)” value [33] of the same binder?
The value was 3.66.

What about the “glycan array binding signal (z-score)” value [34] of the same binder?
Its value is 0.899.

And the “glycan array binding signal (z-score)” value [35]?
Its value is 2.94.

And the “glycan array binding signal (z-score)” value [36]?
Its value is 2.92.

From the supplement of paper PMC8728848
